Paper PMC10143440

Protein sequences, listed by entry. Tags and fused reporters are not part of them. Residues count along the entry.
UniProt P16305, residues 20-453: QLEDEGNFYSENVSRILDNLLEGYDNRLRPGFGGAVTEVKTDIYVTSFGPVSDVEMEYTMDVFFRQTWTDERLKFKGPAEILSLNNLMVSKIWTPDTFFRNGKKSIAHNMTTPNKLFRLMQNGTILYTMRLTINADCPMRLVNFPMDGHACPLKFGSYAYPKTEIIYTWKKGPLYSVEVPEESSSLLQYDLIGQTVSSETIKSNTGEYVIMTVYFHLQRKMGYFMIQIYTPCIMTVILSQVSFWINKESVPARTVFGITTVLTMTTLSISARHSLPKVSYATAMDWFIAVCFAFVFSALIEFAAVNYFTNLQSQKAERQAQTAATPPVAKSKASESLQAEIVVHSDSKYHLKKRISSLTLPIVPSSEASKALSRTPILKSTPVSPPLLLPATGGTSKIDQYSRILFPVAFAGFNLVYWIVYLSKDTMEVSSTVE

Legend:
[1] = target: GABAA receptor α6 subunit (Gabra6) (mouse (endogenous in cerebellum)) (UniProt P16305); test: affinity purification with mass spectrometry; IP with anti-Gabra1 (N95/35) or anti-Gabra6 (Gabra6-a N229A/32, Gabra6-b custom) antibody from mouse cerebellum extract in 1% MNG, 25 mM HEPES, 150 mM NaCl, pH 7.4, overnight 4 °C; protein A/G agarose; washes 0.1% MNG; SDS-PAGE, LC-MS (DDA, iBAQ)
[2] = target: T1, GABAA receptor α1 subunit (Gabra1) (mouse (endogenous in cerebellum)), P62812; test: as above; conditions: remark: other sources report otherwise
T1 chain: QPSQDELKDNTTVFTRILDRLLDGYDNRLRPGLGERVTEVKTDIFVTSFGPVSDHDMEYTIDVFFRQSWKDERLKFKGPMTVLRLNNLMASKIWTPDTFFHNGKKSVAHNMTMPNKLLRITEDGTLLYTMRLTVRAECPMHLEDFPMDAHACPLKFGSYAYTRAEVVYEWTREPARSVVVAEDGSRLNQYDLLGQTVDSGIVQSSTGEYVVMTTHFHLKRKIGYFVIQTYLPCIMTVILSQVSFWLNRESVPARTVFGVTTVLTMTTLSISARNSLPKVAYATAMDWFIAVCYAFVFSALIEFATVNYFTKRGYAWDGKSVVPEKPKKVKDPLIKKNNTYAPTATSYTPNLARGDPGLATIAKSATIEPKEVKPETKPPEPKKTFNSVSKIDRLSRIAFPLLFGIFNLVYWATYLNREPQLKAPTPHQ

B1: Gephyrin (Gphn) (protein, UniProt Q8BUV3 1-769)
chain: MATEGMILTNHDHQIRVGVLTVSDSCFRNLAEDRSGINLKDLVQDPSLLGGTISAYKIVPDEIEEIKETLIDWCDEKELNLILTTGGTGFAPRDVTPEATKEVIEREAPGMALAMLMGSLNVTPLGMLSRPVCGIRGKTLIINLPGSKKGSQECFQFILPALPHAIDLLRDAIVKVKEVHDELEDLPSPPPPLSPPPTTSPHKQTEDKGVQCEEEEEEKKDSGVASTEDSSSSHITAAALAAKIPDSIISRGVQVLPRDTASLSTTPSESPRAQATSRLSTASCPTPKQIRRPDESKGVASRVGSLKARLPSCSSTYSVSEVQSRCSSKENILRASHSAVDITKVARRHRMSPFPLTSMDKAFITVLEMTPVLGTEIINYRDGMGRVLAQDVYAKDNLPPFPASVKDGYAVRAADGPGDRFIIGESQAGEQPTQTVMPGQVMRVTTGAPIPCGADAVVQVEDTELIRESDDGTEELEVRILVQARPGQDIRPIGHDIKRGECVLAKGTHMGPSEIGLLATVGVTEVEVNKFPVVAVMSTGNELLNPEDDLLPGKIRDSNRSTLLATIQEHGYPTINLGIVGDNPDDLLNALNEGISRADVIITSGGVSMGEKDYLKQVLDIDLHAQIHFGRVFMKPGLPTTFATLDIDGVRKIIFALPGNPVSAVVTCNLFVVPALRKMQGILDPRPTIIKARLSCDVKLDPRPEYHRCILTWHHQEPLPWAQSTGNQMSSRLMSMRSANGLLMLPPKTEQYVELHKGEVVDVMVIGRL
With B1 the binding [1] was “no binding”.

B2: Gephyrin (Gphn), Q8BUV3 1-769 (protein)
chain: MATEGMILTNHDHQIRVGVLTVSDSCFRNLAEDRSGINLKDLVQDPSLLGGTISAYKIVPDEIEEIKETLIDWCDEKELNLILTTGGTGFAPRDVTPEATKEVIEREAPGMALAMLMGSLNVTPLGMLSRPVCGIRGKTLIINLPGSKKGSQECFQFILPALPHAIDLLRDAIVKVKEVHDELEDLPSPPPPLSPPPTTSPHKQTEDKGVQCEEEEEEKKDSGVASTEDSSSSHITAAALAAKIPDSIISRGVQVLPRDTASLSTTPSESPRAQATSRLSTASCPTPKQIRRPDESKGVASRVGSLKARLPSCSSTYSVSEVQSRCSSKENILRASHSAVDITKVARRHRMSPFPLTSMDKAFITVLEMTPVLGTEIINYRDGMGRVLAQDVYAKDNLPPFPASVKDGYAVRAADGPGDRFIIGESQAGEQPTQTVMPGQVMRVTTGAPIPCGADAVVQVEDTELIRESDDGTEELEVRILVQARPGQDIRPIGHDIKRGECVLAKGTHMGPSEIGLLATVGVTEVEVNKFPVVAVMSTGNELLNPEDDLLPGKIRDSNRSTLLATIQEHGYPTINLGIVGDNPDDLLNALNEGISRADVIITSGGVSMGEKDYLKQVLDIDLHAQIHFGRVFMKPGLPTTFATLDIDGVRKIIFALPGNPVSAVVTCNLFVVPALRKMQGILDPRPTIIKARLSCDVKLDPRPEYHRCILTWHHQEPLPWAQSTGNQMSSRLMSMRSANGLLMLPPKTEQYVELHKGEVVDVMVIGRL
B2 was tested, and the binding [2] was “no binding”.

Results are given in words; binding and its absence hold for the method and conditions named. Binding seen in cells or lysates may run through a third protein. Here binding means that the protein was enriched with, or labelled near, the bait; the list need not be complete. No binding means not detected with the bait.
